{"sequences": {"note": "Amino acid sequences for entries named in this document (tags omitted). A change or cut given only in a name is not applied to a line headed by its entry. Residues count along the entry.", "UniProt P00747, residues 97-810": "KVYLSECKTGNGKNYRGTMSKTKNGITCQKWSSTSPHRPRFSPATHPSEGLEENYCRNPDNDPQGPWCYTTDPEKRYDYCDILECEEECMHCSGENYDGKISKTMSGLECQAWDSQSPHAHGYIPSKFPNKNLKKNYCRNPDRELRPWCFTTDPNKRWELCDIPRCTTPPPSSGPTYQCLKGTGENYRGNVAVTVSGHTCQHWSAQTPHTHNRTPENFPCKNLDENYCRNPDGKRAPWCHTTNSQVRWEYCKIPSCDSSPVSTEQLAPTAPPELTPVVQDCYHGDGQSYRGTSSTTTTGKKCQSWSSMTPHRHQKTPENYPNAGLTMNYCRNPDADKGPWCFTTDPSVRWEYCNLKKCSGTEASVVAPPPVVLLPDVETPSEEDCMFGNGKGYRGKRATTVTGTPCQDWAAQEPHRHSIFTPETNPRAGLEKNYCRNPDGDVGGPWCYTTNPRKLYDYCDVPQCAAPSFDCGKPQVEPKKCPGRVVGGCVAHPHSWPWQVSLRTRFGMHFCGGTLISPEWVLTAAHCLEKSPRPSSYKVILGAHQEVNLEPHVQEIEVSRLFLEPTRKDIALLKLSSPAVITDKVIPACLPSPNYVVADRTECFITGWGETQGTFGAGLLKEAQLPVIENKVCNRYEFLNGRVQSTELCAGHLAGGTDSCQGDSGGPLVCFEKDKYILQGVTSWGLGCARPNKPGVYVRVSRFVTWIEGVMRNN", "UniProt Q9GP15": "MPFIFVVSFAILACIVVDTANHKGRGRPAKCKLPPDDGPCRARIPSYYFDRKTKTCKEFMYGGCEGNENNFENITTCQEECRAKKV"}, "source": "patent US20080219970A1", "key": {"plasmin [1]": {"target": "plasmin (UniProt P00747)", "experiment": "SPR (BIAcore 3000), Ir-CPI immobilized"}, "plasmin [2]": {"target": "plasmin (UniProt P00747)", "experiment": "SPR (BIAcore 3000), Ir-CPI immobilized on CM5 chip (1500 RU), factor at 100 nM as analyte"}}, "note": "Results are given in words; binding and its absence hold for the method and conditions named. Some binding calls cover weakened binding; strength is not graded here.", "data": [{"substance": "Ir-CPI (Ixodes ricinus Contact Phase Inhibitor), recombinant, without its peptide signal (from UniProt Q9GP15 20-86)", "values": [{"measurement": "binding", "setting": "plasmin [1]", "result": "binds"}, {"measurement": "binding", "setting": "plasmin [2]", "result": "binds"}]}]}
